{
  "source": "the supplement of paper PMC11542785",
  "note": "Counter-ions that a name gives are not always drawn. The list shows a part of the results. Many values rest on one well or one pass, so single values are uncertain.",
  "data": [
    {"test_system": "Drosophila melanogaster DPAGT1 (Alg7) RNAi eye model", "test": "eye size Z-score vs DMSO-treated DPAGT1 model flies; higher = larger eye (suppression of DPAGT1 phenotype)", "details": "5 uM", "values": [
      {"smiles": "C[C@@H]1C[C@H]2[C@@H]3CCC4=CC(=O)C=C[C@]4(C)[C@@]3(Cl)[C@@H](O)C[C@]2(C)[C@@]1(OC(=O)c1ccco1)C(=O)CCl", "note": "[Mometasone furoate]", "eye size Z-score": 0.19},
      {"smiles": "CCOc1ccc2nc(S(N)(=O)=O)sc2c1", "note": "[Ethoxzolamide]", "eye size Z-score": -0.1},
      {"smiles": "c1coc(CNc2ncnc3[nH]cnc23)c1", "note": "[Kinetin]", "eye size Z-score": 0.21},
      {"smiles": "C[C@]12CCC3=C4CCC(=O)C=C4CC[C@H]3[C@@H]1CC[C@@]2(O)CC#N", "note": "[Dienogest]", "eye size Z-score": 0.33},
      {"smiles": "CCCCc1ccc2[nH]c(NC(=O)OC)nc2c1", "note": "[Parbendazole]", "eye size Z-score": 0.57},
      {"smiles": "O=c1oc2cc(O)ccc2s1", "note": "[Tioxolone]", "eye size Z-score": 1},
      {"smiles": "C/C(=C\\C(=O)OCCCCCCCCC(=O)O)C[C@@H]1OC[C@H](C[C@@H]2O[C@H]2[C@@H](C)[C@H](C)O)[C@@H](O)[C@H]1O", "note": "[Mupirocin]", "eye size Z-score": 0.14},
      {"smiles": "CCc1cccc(CC)c1NC(=O)CN(CC(=O)O)CC(=O)O", "note": "[Etifenin]", "eye size Z-score": -0.08},
      {"smiles": "CN/C(=N\\CCSCc1nc[nH]c1C)NC#N", "note": "[Cimetidine]", "eye size Z-score": 0.96},
      {"smiles": "O=C(O)c1cc(/N=N/c2ccc(S(=O)(=O)Nc3ccccn3)cc2)ccc1O", "note": "[Sulfasalazine]", "eye size Z-score": 1.05},
      {"smiles": "CN1CCCN=C1/C=C/c1cccc(O)c1", "note": "[Oxantel pamoate]", "eye size Z-score": -0.24},
      {"smiles": "CC(N)CCCC(C)(C)O", "note": "(stereo unspecified) [Heptaminol hydrochloride]", "eye size Z-score": 1.54},
      {"smiles": "C[C@@H](O[C@H]1OCCN(Cc2n[nH]c(=O)[nH]2)[C@H]1c1ccc(F)cc1)c1cc(C(F)(F)F)cc(C(F)(F)F)c1", "note": "[Aprepitant]", "eye size Z-score": 0.67},
      {"smiles": "Cc1cn(-c2cc(NC(=O)c3ccc(C)c(Nc4nccc(-c5cccnc5)n4)c3)cc(C(F)(F)F)c2)cn1", "note": "[Nilotinib]", "eye size Z-score": 0.32},
      {"smiles": "CC1(C)S[C@@H]2[C@H](NC(=O)C3(N)CCCCC3)C(=O)N2[C@H]1C(=O)O", "note": "[Cyclacillin]", "eye size Z-score": -0.27},
      {"smiles": "CC=CC1=C(C(=O)O)N2C(=O)[C@@H](NC(=O)[C@H](N)c3ccc(O)cc3)[C@H]2SC1", "note": "[Cefprozil]", "eye size Z-score": -0.8},
      {"smiles": "Cc1cc2c(s1)Nc1ccccc1N=C2N1CCN(C)CC1", "note": "[Olanzapine]", "eye size Z-score": -0.27},
      {"smiles": "Cc1c(O)c(=O)n(-c2ccccc2)n1C", "note": "[Antipyrine, 4-hydroxy]", "eye size Z-score": 1.51},
      {"smiles": "CC(C)OC(=O)C(C)(C)Oc1ccc(C(=O)c2ccc(Cl)cc2)cc1", "note": "[Fenofibrate]", "eye size Z-score": -0.16},
      {"smiles": "NC[C@@H]1O[C@@H](O[C@H]2[C@H](O)[C@@H](O[C@H]3O[C@H](CO)[C@@H](O)[C@H](N)[C@H]3O)[C@H](N)C[C@@H]2N)[C@@H](O)[C@H](O)[C@H]1O", "note": "[Kanamycin A sulfate]", "eye size Z-score": -0.56},
      {"smiles": "COC(=O)C1=C(C#N)NC(C)=C(C(=O)OC(C)C)C1c1cccc([N+](=O)[O-])c1", "note": "(stereo unspecified) [Nilvadipine]", "eye size Z-score": -0.35}
    ]}
  ]
}
